According to US20200392228A1:
Where a chain is given by its changes, count along the chain named. Results are given in words; binding and its absence hold for the method and conditions named. Some results given as binding are weak or reduced against the parent protein; the word gives no strength.

Chains of the proteins cited; added tags and fusions are not shown. Lines headed by an entry give the natural chain unless they say otherwise; changes in a name come on top. Residues count along the entry.
UniProt Q13477: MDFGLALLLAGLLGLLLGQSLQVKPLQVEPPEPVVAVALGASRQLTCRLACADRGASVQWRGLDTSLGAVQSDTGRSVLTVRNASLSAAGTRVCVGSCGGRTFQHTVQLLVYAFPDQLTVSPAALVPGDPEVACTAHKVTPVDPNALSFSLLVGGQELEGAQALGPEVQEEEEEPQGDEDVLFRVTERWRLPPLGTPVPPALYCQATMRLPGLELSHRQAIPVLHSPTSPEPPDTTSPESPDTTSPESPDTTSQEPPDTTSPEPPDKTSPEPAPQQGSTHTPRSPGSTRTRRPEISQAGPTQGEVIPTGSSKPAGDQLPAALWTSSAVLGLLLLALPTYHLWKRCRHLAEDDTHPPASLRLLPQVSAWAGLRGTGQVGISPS
human MAdCAM expressed on cells: residues 19-382 of Q13477
human MAdCAM protein: residues 19-317 of Q13477
UniProt Q61826: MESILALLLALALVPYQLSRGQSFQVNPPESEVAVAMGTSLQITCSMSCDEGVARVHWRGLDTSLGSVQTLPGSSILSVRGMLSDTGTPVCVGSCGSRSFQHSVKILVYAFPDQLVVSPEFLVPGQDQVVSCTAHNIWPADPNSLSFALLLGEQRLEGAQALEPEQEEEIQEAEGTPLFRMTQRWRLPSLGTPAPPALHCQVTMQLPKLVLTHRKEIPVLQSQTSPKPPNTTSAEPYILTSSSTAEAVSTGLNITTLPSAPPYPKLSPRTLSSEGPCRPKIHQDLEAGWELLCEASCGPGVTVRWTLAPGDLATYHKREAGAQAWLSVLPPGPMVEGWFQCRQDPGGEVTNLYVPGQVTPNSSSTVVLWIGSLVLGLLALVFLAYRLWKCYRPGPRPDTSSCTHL
mouse MAdCAM expressed on cells: residues 22-405 of Q61826
mouse MAdCAM protein: residues 22-365 of Q61826

Experiments:
[1] = target: human MAdCAM protein (human) (UniProt Q13477); assay: Octet
[2] = target: mouse MAdCAM protein (mouse) (UniProt Q61826); assay: Octet
[3] = target: human MAdCAM expressed on cells (human) (UniProt Q13477); assay: cell binding
[4] = target: mouse MAdCAM expressed on cells (mouse) (UniProt Q61826); assay: cell binding

Measured: binding

B1: MAdCAM antibody Clone ID 4 of Table 7 (IgG) (antibody, V domains shown)
VH: QVQLVQSGAEVKKPGASVKVSCKASGGTFSSYAISWVRQAPGQGLEWMGSINPSGDTTSYAQKFQGRVTMTRDTSTSTVYMELSSLRSEDTAVYYCAKDKAQWLVGYFDYWGQGTLVTVSS
VL: DIQMTQSPSSLSASVGDRVTITCQASQDISNSLNWYQQKPGKAPKLLIYAASSLQSGVPSRFSGSGSGTDFTLTISSLQPEDFATYYCQQSYSSVITFGQGTKVEIK
binds: all assays above

B2: MAdCAM antibody Clone ID 5 of Table 7 (IgG) (antibody, V domains shown)
VH: EVQLLESGGGLVQPGGSLRLSCAASGFTFSSYWMHWVRQAPGKGLEWVSSISPGGSNIDYADSVKGRFTISRDNSKNTLYLQMNSLRAEDTAVYYCAREVQLSHYDYWGQGTLVTVSS
VL: B1 VL with Q24R, D28G, N34A, A50G, S91A, Y92N, S94F, V95P, I96F
binds: all assays above

B3: MAdCAM antibody Clone ID 11 of Table 7 (IgG) (antibody, V domains shown)
VH: EVQLLESGGGLVQPGGSLRLSCAASGFTFSDYYMNWVRQAPGKGLEWVSVIGESGGSTYYADSVKGRFTISRDNSKNTLYLQMNSLRAEDTAVYYCAADPVSRWPKHGGGDYWGQGTLVTVSS
VL: B1 VL with Q24R, D28G, N31S, N34A, S53T, S94T, V95P, I96W
binds: all assays above
